The list shows a part of the results.

Amino acid sequences for entries named in this document (tags omitted).
UniProt Q0JBA9, entry or part of it: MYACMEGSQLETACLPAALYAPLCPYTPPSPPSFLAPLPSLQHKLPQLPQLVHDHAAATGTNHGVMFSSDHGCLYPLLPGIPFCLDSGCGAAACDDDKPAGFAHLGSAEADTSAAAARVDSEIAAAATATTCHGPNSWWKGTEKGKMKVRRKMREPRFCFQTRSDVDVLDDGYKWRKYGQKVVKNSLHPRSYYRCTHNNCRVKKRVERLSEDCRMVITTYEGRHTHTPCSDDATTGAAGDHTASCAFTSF

Drawing on paper PMC7819943, “Rice protein-binding microarrays: a tool to detect cis-acting elements near promoter regions in rice”, this text covers binding signal for 54 sequences.

The target in the assay is OsWRKY34 (Oryza sativa, UniProt Q0JBA9 1-250). As to the kind of experiment: protein-binding microarray (RPBM); PBS, 2% BSA, 51.3 ng/ul salmon testes DNA, 50 uM zinc acetate, 200 nM TF, 25 C, 1 h; high values mean tight binding. The conditions noted are these: protein: recombinant; tags: N-terminal polyhistidine and DsRed monomer fusion (pET32a); label: CyDye5-dUTP incorporated in the synthesized complementary strand; 3' TTTTT single-stranded linker to array surface; dsDNA, one strand shown. Put shortly: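 An Axon 4000B scanner gave the binding signal as per-feature fluorescence intensity in arbitrary units. This followed washing of a custom Agilent array that had been incubated for 1 h at 25 °C with 200 nM protein in PBS, 2% BSA, salmon testes DNA and 50 µM zinc acetate. The proteins were transcription factors fused at the N-terminus to polyhistidine and DsRed, expressed in E. coli BL21-CodonPlus and purified on Ni–NTA.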
As to “AACTTTGGTCTCATGCAAAATTTTCACATCGTACACTCCTCGGAGTCACCTAGTGCAG”, the binding signal was 9430 fluorescence intensity (a.u.). To “AACCGGCCAACCGCCCCAGATATGGCCTCTCGCGCGCGCGCGGAGTCACCTAGTGCAG” belongs 9930 fluorescence intensity (a.u.); to “GTACTCTCTCTCTCTCTCTGTGTTGATAACCCCAATACAACGGAGTCACCTAGTGCAG”, 8130 fluorescence intensity (a.u.); to “ATAGGTAGATTGTTGGTGATGCTCTAAGGGTGGGTTTTGACGGAGTCACCTAGTGCAG”, 13400 fluorescence intensity (a.u.). As to “GCCCCTTGCTGTCCACTGCCTGAGAAGCCGAGACCACTACCGGAGTCACCTAGTGCAG”, the binding signal was 8690 fluorescence intensity (a.u.). To “CCACTCACAGGCTCAACTCAACTCCACCCGAATCCGCAAGCGGAGTCACCTAGTGCAG” belongs 8320 fluorescence intensity (a.u.); to “CACTCACCGACCCGCCGCCGTCTCTCCCTCGTGTTCTCCGCGGAGTCACCTAGTGCAG”, 8900 fluorescence intensity (a.u.); to “TTCATACTATCGGTCTCATCTTTTTGCTTATACTTATACTCGGAGTCACCTAGTGCAG”, 8380 fluorescence intensity (a.u.). To “TTCCACGCCCTCTTAAGTGGTTCCCGCACACATGATGTCCCGGAGTCACCTAGTGCAG” belongs 8830 fluorescence intensity (a.u.); to “GGTGCTCACGCTGGTCGCCTTTGTTCTACAGCTCGAAATACGGAGTCACCTAGTGCAG”, 8690 fluorescence intensity (a.u.); to “ATCTAACATTTCGCGGTTGCATTACCATCTCTTGCCTCTTCGGAGTCACCTAGTGCAG”, 16300 fluorescence intensity (a.u.). Turning to “TTGTCTGTTGGCTTCTTTTGGGCTAATCTCCCTATGCACACGGAGTCACCTAGTGCAG”, the binding signal was 9370 fluorescence intensity (a.u.). “CAACTGCTACTAGTACTATCTCCTCCCGTCTCGTGCTCTTCGGAGTCACCTAGTGCAG”: the binding signal was 8320 fluorescence intensity (a.u.). For “TTGTAGCAAAATGTTTTATGAGGTGATTTTGTTGTGTTTCCGGAGTCACCTAGTGCAG”, the binding signal was 8380 fluorescence intensity (a.u.). With “GATATGACATTTCTACCCCTCATTGATATGCATTATATTTCGGAGTCACCTAGTGCAG” the figure was 9720 fluorescence intensity (a.u.); with “GGGAGGGGCGGCCCAGCGGCAGCGGAGGGGAGGGAGGATGCGGAGTCACCTAGTGCAG”, 8640 fluorescence intensity (a.u.). In the case of “GCTGGATTTTATTTTCTGTTGTTACTACTATATATGCTTACGGAGTCACCTAGTGCAG”, the binding signal was 11300 fluorescence intensity (a.u.). To “GGTTGCCGCGTTGTCCTCTGTCTCTACACGGACACAATGTCGGAGTCACCTAGTGCAG” belongs 8490 fluorescence intensity (a.u.). To “CGTGGTGCTCGCGTCCCTTCTCCTCGTCGTCTCCGGCGAACGGAGTCACCTAGTGCAG” belongs 10400 fluorescence intensity (a.u.). Consider “ATCTATTTGAGTTTAATTTTTGTATGGTTGGTTATTGTGTCGGAGTCACCTAGTGCAG”, for which the binding signal is 8700 fluorescence intensity (a.u.). With “ACTTCTGCGCCGTCGCTTTTATGGTTTTATGTAATGTTGTCGGAGTCACCTAGTGCAG” the figure was 8100 fluorescence intensity (a.u.); with “TAGCTTCTCGTCGACGCTTTTGCCTCCGTCTATATAAGACCGGAGTCACCTAGTGCAG”, 9530 fluorescence intensity (a.u.). With “GTGGATTTTTTCGTGTGTTCTTCAAAATGTTCCTAGTCAACGGAGTCACCTAGTGCAG” the figure was 8200 fluorescence intensity (a.u.).

As for “TCAGTTTTTCTTCTACTATATTCGATGCATCTTGTTATGTCGGAGTCACCTAGTGCAG”, the binding signal was 9320 fluorescence intensity (a.u.).

As to “TCACGTTTTTAATTATTCCGGACATTCTAAACCACGTTTACGGAGTCACCTAGTGCAG”, the binding signal is 9180 fluorescence intensity (a.u.). To “TTTGTGTTTCTTCTTTAGCGACGGTGTGTTTATCCGTCTTCGGAGTCACCTAGTGCAG” belongs 9550 fluorescence intensity (a.u.).

As for “AACAACAACGTCCCGCCGCATCTCCTGCTCCGGCGCCGGCCGGAGTCACCTAGTGCAG”, the binding signal was 11100 fluorescence intensity (a.u.). To “TCCTTTTGTTGTTCGAACTTACTCTCTCATCATCTTTGGTCGGAGTCACCTAGTGCAG” belongs 8700 fluorescence intensity (a.u.). With “GGTATATTTGGAATAAGTTTCTTTTTACCCTGTTTATATACGGAGTCACCTAGTGCAG” the figure was 8640 fluorescence intensity (a.u.); with “GGAGATCCTCCGGGCTTTTGGGTTGGTTTCTTTCGTTGGACGGAGTCACCTAGTGCAG”, 12600 fluorescence intensity (a.u.). With “ATAACTATTTAATCCCTTGGCTATGTTATTTTGGCAGCAGCGGAGTCACCTAGTGCAG” the figure was 8490 fluorescence intensity (a.u.).

As to “CACAGTACTAACATTTTCCATTGCTTATAATTTGCAGATGCGGAGTCACCTAGTGCAG”, the binding signal was 8450 fluorescence intensity (a.u.). Take “AATTTGGTGGGGTCGGGGTGGGTGCTTTAACTGGGGAGATCGGAGTCACCTAGTGCAG”: the binding signal was 24500 fluorescence intensity (a.u.). Regarding “ACTACACACGCAACACTACACTTTATCAAACTTTTTTTTGCGGAGTCACCTAGTGCAG”, the binding signal was 10600 fluorescence intensity (a.u.). “CCCGCCGCGTCAGTTCCGCGTCCCCGCAGGCCGCAGCCAACGGAGTCACCTAGTGCAG”: the binding signal was 8270 fluorescence intensity (a.u.). Take “TATACATCACTGTGTTCATTATGAGCTTGGCTATGCAATACGGAGTCACCTAGTGCAG”: the binding signal is 8560 fluorescence intensity (a.u.). To “GAGGAGGTGGGGAGGCGGCCATTCCCATGGCGCGTGGACGCGGAGTCACCTAGTGCAG” belongs 8310 fluorescence intensity (a.u.); to “TCATCATCCTGACTGACCACCACAGTCTTGTTCATTTGTCCGGAGTCACCTAGTGCAG”, 8660 fluorescence intensity (a.u.). With “ATGTTTCCAATAGGCTTTATCTCTTACTTATTTTTTTATGCGGAGTCACCTAGTGCAG” the figure was 8630 fluorescence intensity (a.u.). In the case of “CTTGTTCATATTTTTTCAATTTTTTTCATAGTTATTTAGACGGAGTCACCTAGTGCAG”, the binding signal is 9310 fluorescence intensity (a.u.).

Regarding “TCCAACCCTTTAATACTTCCCCGTTTCATTTCATTATAGCCGGAGTCACCTAGTGCAG”, the binding signal is 10300 fluorescence intensity (a.u.). With “ACCTTACCTTACCTTACTGGGGAGGGGACCTTCTTAATTACGGAGTCACCTAGTGCAG” the figure was 15800 fluorescence intensity (a.u.); with “TCTACGTTTAATATTTCAAATGTGTGTCCGTGTACTTAAACGGAGTCACCTAGTGCAG”, 8990 fluorescence intensity (a.u.). To “AGGTCAACAACCAGTGTCAAGATCTGACCATGCAATTAGCCGGAGTCACCTAGTGCAG” belongs 17600 fluorescence intensity (a.u.). With “TCATTGGTCTTTACTCAGTTTTGGGTCGTCTCTTGCAGACCGGAGTCACCTAGTGCAG” the figure was 9470 fluorescence intensity (a.u.); with “GTCTCCTCGACCTCACCACCCGTCCATCCCTACCTACCTCCGGAGTCACCTAGTGCAG”, 11100 fluorescence intensity (a.u.); with “TCAACTGTACTGTACTCCACTCGCCGCACACACTGACACACGGAGTCACCTAGTGCAG”, 11200 fluorescence intensity (a.u.).

For “GAGCGGGGAGGCGGCGGATCTAGGGTTTGGTTGGGTTTTTCGGAGTCACCTAGTGCAG”, the binding signal is 15300 fluorescence intensity (a.u.).

With “TTTGTGCATCCCACATGTCAGAGAAGACTCGTCCAGTTCCCGGAGTCACCTAGTGCAG”, the binding signal was 8520 fluorescence intensity (a.u.). Turning to “TTCAATCTGCCTCCTCTCGCTATATATCTCGCACCAGGCTCGGAGTCACCTAGTGCAG”, the binding signal was 8320 fluorescence intensity (a.u.). To “CTCTCCCATCCTCTCCACCTCAATCCCTCTCGCCGCCATGCGGAGTCACCTAGTGCAG” belongs 8040 fluorescence intensity (a.u.). To “ACCATATGACTTATATATCTGTCGTCAGCTCATTTCTATGCGGAGTCACCTAGTGCAG” belongs 9740 fluorescence intensity (a.u.); to “TGCAATCCATATCCATTCCTCTTTGCAGGCCTCCTAGATCCGGAGTCACCTAGTGCAG”, 8360 fluorescence intensity (a.u.); to “TAATAATTCCTAGTCTTTGGAGTGAACATGCTGGTTTTTACGGAGTCACCTAGTGCAG”, 8230 fluorescence intensity (a.u.).
